Here are results for 2 molecules from publication PMC4059726.

Protein sequences, listed by entry. Tags and fused reporters are not part of them. Lines headed by an entry give the natural chain unless they say otherwise; changes in a name come on top.
UniProt Q7Z5H3: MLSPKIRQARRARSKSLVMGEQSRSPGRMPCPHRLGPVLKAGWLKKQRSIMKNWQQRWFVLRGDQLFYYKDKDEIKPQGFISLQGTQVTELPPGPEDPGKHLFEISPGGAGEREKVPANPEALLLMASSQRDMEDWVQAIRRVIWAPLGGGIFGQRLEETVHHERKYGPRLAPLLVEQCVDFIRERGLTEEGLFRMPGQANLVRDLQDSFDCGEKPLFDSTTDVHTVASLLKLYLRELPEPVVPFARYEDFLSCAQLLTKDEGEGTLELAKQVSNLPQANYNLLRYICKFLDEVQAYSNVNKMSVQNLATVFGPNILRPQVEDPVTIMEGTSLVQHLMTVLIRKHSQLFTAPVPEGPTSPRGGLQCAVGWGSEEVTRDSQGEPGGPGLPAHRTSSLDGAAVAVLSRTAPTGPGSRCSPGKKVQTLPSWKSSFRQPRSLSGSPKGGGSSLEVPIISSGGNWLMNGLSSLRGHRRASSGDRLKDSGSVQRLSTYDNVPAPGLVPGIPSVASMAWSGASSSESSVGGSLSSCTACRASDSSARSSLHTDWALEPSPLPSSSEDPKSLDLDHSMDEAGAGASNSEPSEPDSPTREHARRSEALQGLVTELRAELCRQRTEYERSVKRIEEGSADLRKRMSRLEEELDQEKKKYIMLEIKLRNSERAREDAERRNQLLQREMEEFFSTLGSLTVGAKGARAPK
UniProt P21333: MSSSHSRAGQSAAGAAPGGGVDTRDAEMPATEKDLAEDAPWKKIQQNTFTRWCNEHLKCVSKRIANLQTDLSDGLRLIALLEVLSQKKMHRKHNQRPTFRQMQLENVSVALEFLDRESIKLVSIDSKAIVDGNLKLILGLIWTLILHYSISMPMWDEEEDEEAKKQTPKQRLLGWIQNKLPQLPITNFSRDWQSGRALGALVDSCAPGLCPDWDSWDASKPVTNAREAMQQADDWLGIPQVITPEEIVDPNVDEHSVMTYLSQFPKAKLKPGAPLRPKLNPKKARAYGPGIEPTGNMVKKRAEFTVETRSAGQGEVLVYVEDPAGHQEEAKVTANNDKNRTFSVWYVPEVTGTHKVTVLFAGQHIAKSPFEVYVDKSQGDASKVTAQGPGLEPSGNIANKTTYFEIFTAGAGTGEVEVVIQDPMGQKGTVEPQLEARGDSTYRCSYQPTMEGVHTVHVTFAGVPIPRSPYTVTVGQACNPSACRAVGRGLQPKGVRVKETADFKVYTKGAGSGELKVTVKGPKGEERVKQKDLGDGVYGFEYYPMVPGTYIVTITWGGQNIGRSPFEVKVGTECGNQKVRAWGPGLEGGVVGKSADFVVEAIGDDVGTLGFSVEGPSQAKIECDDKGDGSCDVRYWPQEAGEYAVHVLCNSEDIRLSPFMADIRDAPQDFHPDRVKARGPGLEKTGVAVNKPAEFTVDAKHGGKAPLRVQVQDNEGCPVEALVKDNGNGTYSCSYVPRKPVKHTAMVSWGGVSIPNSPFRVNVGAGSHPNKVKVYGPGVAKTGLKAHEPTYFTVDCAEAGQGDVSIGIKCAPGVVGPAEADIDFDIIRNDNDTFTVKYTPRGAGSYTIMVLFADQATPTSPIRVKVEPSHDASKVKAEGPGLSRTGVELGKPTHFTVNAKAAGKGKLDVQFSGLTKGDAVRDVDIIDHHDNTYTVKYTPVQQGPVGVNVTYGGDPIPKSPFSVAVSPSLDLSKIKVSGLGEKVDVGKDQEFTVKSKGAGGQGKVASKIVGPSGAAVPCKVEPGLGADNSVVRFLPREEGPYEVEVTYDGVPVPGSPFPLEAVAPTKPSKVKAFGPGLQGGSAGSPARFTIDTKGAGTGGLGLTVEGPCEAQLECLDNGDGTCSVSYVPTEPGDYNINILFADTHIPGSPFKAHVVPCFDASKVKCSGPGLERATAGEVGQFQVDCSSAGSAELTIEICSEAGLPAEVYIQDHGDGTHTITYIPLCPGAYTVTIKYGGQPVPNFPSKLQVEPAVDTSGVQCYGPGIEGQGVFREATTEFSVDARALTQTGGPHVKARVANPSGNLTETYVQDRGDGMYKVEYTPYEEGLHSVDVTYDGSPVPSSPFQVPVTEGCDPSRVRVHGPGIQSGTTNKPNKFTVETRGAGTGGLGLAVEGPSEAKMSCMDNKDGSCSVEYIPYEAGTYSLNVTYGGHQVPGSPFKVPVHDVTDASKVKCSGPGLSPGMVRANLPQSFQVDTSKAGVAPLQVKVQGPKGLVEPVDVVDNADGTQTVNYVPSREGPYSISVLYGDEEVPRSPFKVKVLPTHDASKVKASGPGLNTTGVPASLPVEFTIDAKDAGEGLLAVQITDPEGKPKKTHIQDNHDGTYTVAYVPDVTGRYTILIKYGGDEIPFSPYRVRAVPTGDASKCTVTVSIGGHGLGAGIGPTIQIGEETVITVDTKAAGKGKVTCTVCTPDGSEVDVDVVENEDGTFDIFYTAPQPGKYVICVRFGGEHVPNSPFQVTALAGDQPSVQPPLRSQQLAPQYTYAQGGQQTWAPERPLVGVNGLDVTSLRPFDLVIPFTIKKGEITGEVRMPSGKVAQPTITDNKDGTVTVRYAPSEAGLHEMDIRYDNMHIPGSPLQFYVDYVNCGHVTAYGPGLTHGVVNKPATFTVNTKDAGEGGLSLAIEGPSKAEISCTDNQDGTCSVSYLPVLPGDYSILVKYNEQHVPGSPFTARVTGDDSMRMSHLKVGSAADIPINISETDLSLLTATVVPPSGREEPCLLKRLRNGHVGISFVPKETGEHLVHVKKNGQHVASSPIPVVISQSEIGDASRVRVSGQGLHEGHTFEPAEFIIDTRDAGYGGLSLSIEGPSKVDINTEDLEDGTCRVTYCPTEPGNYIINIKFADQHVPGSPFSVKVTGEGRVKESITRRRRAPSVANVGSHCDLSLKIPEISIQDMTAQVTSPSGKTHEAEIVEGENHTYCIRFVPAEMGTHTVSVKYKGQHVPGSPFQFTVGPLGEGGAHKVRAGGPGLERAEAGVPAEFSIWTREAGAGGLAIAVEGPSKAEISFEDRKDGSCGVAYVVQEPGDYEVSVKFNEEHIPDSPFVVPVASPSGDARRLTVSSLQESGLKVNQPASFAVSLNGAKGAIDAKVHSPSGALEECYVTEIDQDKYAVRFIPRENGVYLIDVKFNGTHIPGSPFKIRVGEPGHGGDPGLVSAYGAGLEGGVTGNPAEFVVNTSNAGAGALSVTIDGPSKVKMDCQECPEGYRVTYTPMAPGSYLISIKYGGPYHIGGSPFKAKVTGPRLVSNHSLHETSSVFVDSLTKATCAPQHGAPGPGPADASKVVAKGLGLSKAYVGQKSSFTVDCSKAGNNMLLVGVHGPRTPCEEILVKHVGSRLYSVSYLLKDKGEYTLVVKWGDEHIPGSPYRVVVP

No constants are given. Whether binding was seen depends on the method and setting. Binding seen in cells or lysates may run through a third protein. For some assays here: Binding can be weak; no strength is given. For some assays here: Tags and fused reporters may be left off the sequences shown.

Experiment [1] deals with HA-tagged full length ARHGAP22 (human) (UniProt Q7Z5H3). Nature of the experiment: co-IP; HEK cells transfected with HA-ARHGAP22 or HA-FilGAP; immunoprecipitated from cell extracts with anti-HA agarose; endogenous FLNa detected by immunoblot with anti-FLNa antibody. A general note: In western blotting, separated proteins are transferred to a membrane and probed.
In experiment [2] the target is GST-FLNa-Repeat 23–24. Nature of the experiment: pull-down; extracts of HEK cells transfected with HA-ARHGAP22 or HA-FilGAP incubated with GST-FLNa-Repeat 23–24 and glutathione-Sepharose 4B, 1 h at 4°C; 50 mM Tris-HCl pH 7.5, 100 mM NaCl, 0.1% NP-40, 5 mM MgCl2, 5 mM EGTA, 1 mM DTT; immunoblot with anti-HA; only the target purified.

In the case of Filamin A (from UniProt P21333 1-2647), the binding entry in experiment [1] is “no binding”.

B1: HA-FilGAP (protein, UniProt Q8N264-1 1-748)
chain: MEENNDSTENPQQGQGRQNAIKCGWLRKQGGFVKTWHTRWFVLKGDQLYYFKDEDETKPLGTIFLPGNKVSEHPCNEENPGKFLFEVVPGGDRDRMTANHESYLLMASTQNDMEDWVKSIRRVIWGPFGGGIFGQKLEDTVRYEKRYGNRLAPMLVEQCVDFIRQRGLKEEGLFRLPGQANLVKELQDAFDCGEKPSFDSNTDVHTVASLLKLYLRELPEPVIPYAKYEDFLSCAKLLSKEEEAGVKELAKQVKSLPVVNYNLLKYICRFLDEVQSYSGVNKMSVQNLATVFGPNILRPKVEDPLTIMEGTVVVQQLMSVMISKHDCLFPKDAELQSKPQDGVSNNNEIQKKATMGQLQNKENNNTKDSPSRQCSWDKSESPQRSSMNNGSPTALSGSKTNSPKNSVHKLDVSRSPPLMVKKNPAFNKGSGIVTNGSFSSSNAEGLEKTQTTPNGSLQARRSSSLKVSGTKMGTHSVQNGTVRMGILNSDTLGNPTNVRNMSWLPNGYVTLRDNKQKEQAGELGQHNRLSTYDNVHQQFSMMNLDDKQSIDSATWSTSSCEISLPENSNSCRSSTTTCPEQDFFGGNFEDPVLDGPPQDDLSHPRDYESKSDHRSVGGRSSRATSSSDNSETFVGNSSSNHSALHSLVSSLKQEMTKQKIEYESRIKSLEQRNLTLETEMMSLHDELDQERKKFTMIEIKMRNAERAKEDAEKRNDMLQKEMEQFFSTFGELTVEPRRTERGNTIWIQ
Regarding B1, in experiment [2], the binding result is recorded as “binds”.
